Assay results published in PubChem BioAssay AID248 (DTP/NCI, 2004).
The list shows only some results of the screen, not a fair sample: it is rich in T/C values a quarter to a half above the control, in often repeated tests (any T/C) and in doses without a T/C. Further doses and runs are listed elsewhere. T/C gives the treated animals as a percentage of the vehicle group. Some doses have a count of surviving animals in place of a T/C: the source holds a T/C of zero for them, seemingly a mark for toxic or unscored doses. Some doses without a T/C left all or most animals alive at the check, yet need not have been tolerated: survival well below the control is almost never listed, so the zero probably covers shortened survival too. Survivors were counted at the toxicity check, usually on the fifth day, unless a day is given; later deaths do not show. Schedules are NCI's codes, taken here to give the interval after Q, in days (D) or hours (H), and the number of doses after X. Some schedules carry Z or #; the key to these is not given. For survival time, the PubChem record calls one and a half times the control and up active, and a quarter to a half above the control has no call in these data; cut-offs in other NCI protocols can differ. Some T/C values are followed by the survivors on the day toxicity was checked, most often the fifth; without a count, all were alive then.

Tested on: L1210 leukemia ip in BDF1 mice, survival T/C
Experiment: NCI In Vivo Anticancer Drug Screen. Data for tumor model L1210 Leukemia (intraperitoneal) in B6D2F1 (BDF1) mice
Settings: T/C endpoint: mean survival time, higher T/C = longer survival
[1] = dose: 100.0 mg/kg/injection, schedule: Q01DX001 (ip), vehicle: saline
[2] = dose: 200.0 mg/kg/injection, schedule: Q01DX001 (ip), vehicle: saline
[3] = dose: 400.0 mg/kg/injection, schedule: Q01DX001 (ip), vehicle: saline
[4] = dose: 100.0 mg/kg/injection, schedule: Q04DX002 (ip), vehicle: saline with Tween-80
[5] = dose: 200.0 mg/kg/injection, schedule: Q04DX002 (ip), vehicle: saline with Tween-80
[6] = dose: 400.0 mg/kg/injection, schedule: Q04DX002 (ip), vehicle: saline with Tween-80
[7] = dose: 300.0 mg/kg/injection, schedule: Q01DX001 (ip), vehicle: carboxymethylcellulose (CMC)
[8] = dose: 400.0 mg/kg/injection, schedule: Q04DX003 (ip), vehicle: Klucel (hydroxypropylcellulose) (HPC)
[9] = dose: 150.0 mg/kg/injection, schedule: Q01DX001 (ip), vehicle: saline
[10] = dose: 300.0 mg/kg/injection, schedule: Q01DX001 (ip), vehicle: saline

Q: Which survivor count (dose: 400.0 mg/kg/injection, schedule: Q01DX009 (ip), vehicle: Klucel (hydroxypropylcellulose) (HPC)) does the source give for Cc1cc(C)c(NC(=O)Nc2cccc(F)c2)c(C)c1 here?
A: The survivor count was 5 of 6.

Q: Which T/C [1] does the source give for O=[N+]([O-])c1ccc(/C=N/O)o1 here?
A: The T/C was 133 % of control [4 of 6 alive].

Q: And the survivor count (dose: 100.0 mg/kg/injection, schedule: Q04DX002 (ip), vehicle: Klucel (hydroxypropylcellulose) (HPC))?
A: The survivor count was 0 of 3.

Q: And the survivor count [2]?
A: The survivor count was 2 of 6.

Q: And the survivor count (dose: 200.0 mg/kg/injection, schedule: Q04DX002 (ip), vehicle: Klucel (hydroxypropylcellulose) (HPC))?
A: The survivor count was 1 of 3.

Q: And the survivor count (dose: 400.0 mg/kg/injection, schedule: Q04DX002 (ip), vehicle: Klucel (hydroxypropylcellulose) (HPC))?
A: The survivor count was 0 of 3.

Q: With NC(CCl)CCl as the compound, how does the survivor count (dose: 50.0 mg/kg/injection, schedule: Q01DX Z (ip), vehicle: other) read?
A: Its survivor count is 0 of 7.

Q: Which results are given for Cn1cnc(N)c1C(=N)[Se]?
A: survivor count (dose: 12.5 mg/kg/injection, schedule: Q01DX009 (ip), vehicle: water): 6 of 6; survivor count (dose: 25.0 mg/kg/injection, schedule: Q01DX009 (ip), vehicle: water): 5 of 6; survivor count (dose: 50.0 mg/kg/injection, schedule: Q04DX003 (ip), vehicle: water): 0 of 6

Q: With CCCCCCC(/C=N\NC(=O)c1cccc2ccccc12)=C\c1ccccc1 as the compound, how does the survivor count [1] read?
A: Its survivor count is 4 of 4.

Q: And the survivor count [3]?
A: The survivor count was 1 of 4.

Q: What does the source list for O[Si](O)([O][Sn]([c]1ccccc1)([c]1ccccc1)[c]1ccccc1)[O][Sn]([c]1ccccc1)([c]1ccccc1)[c]1ccccc1?
A: survivor count (dose: 50.0 mg/kg/injection, schedule: Q01DX009 (ip), vehicle: saline with Tween-80): 0 of 3; survivor count (dose: 100.0 mg/kg/injection, schedule: Q01DX009 (ip), vehicle: saline with Tween-80): 0 of 3; survivor count (dose: 100.0 mg/kg/injection, schedule: Q01DX009 (ip), vehicle: saline): 3 of 3; survivor count (dose: 200.0 mg/kg/injection, schedule: Q01DX009 (ip), vehicle: saline): 0 of 3

Q: With CCCCCCCCCCCCCC[N+](C)(C)CC#CC[N+](C)(C)CCCCCCCCCCCCCC as the compound, how does the survivor count [4] read?
A: Its survivor count is 0 of 3.

Q: What about the survivor count [5] of the same compound?
A: Its survivor count is 0 of 3.

Q: And the survivor count [6]?
A: The survivor count was 0 of 3.

Q: With O=C1C=CC(=O)c2cc3ccccc3cc21 as the compound, how does the survivor count (dose: 200.0 mg/kg/injection, schedule: Q01DX001 (ip), vehicle: carboxymethylcellulose (CMC)) read?
A: Its survivor count is 2 of 4.

Q: And the survivor count (dose: 400.0 mg/kg/injection, schedule: Q01DX001 (ip), vehicle: carboxymethylcellulose (CMC))?
A: The survivor count was 2 of 4.

Q: For CC[Si](CC)(CC)c1ccc(CCNCCS)s1, which survivor count (dose: 300.0 mg/kg/injection, schedule: Q04DX003 (ip), vehicle: saline) is on record?
A: Its survivor count is 0 of 6.

Q: Which survivor count (dose: 50.0 mg/kg/injection, schedule: Q01DX001 (ip), vehicle: saline) does the source give for C1C2CC3C1C1CN3C21 (stereo not given) here?
A: Its survivor count is 0 of 6.

Q: And the survivor count [1]?
A: Its survivor count is 0 of 6.

Q: And the survivor count [2]?
A: The survivor count was 6 of 6.

Q: With COc1ccc(C(O)C2c3c(cc4c(c3OC)OCO4)CCN2C)c(CO)c1OC (stereo not given) as the compound, how does the survivor count [7] read?
A: Its survivor count is 0 of 6.

Q: What does the source list for N#CC(C#N)=C1SCS1?
A: survivor count [4]: 1 of 3; survivor count [5]: 0 of 3; survivor count [6]: 0 of 3

Q: What does the source list for CC(=O)OC1OC(CF)C(OC(C)=O)C1OC(C)=O (stereo not given)?
A: survivor count (dose: 200.0 mg/kg/injection, schedule: Q01DX009 (ip), vehicle: saline with Tween-80): 3 of 6; survivor count (dose: 400.0 mg/kg/injection, schedule: Q01DX009 (ip), vehicle: saline with Tween-80): 3 of 6

Q: Which results are given for N#C/C(=C\C=C\c1ccccc1)C(=O)O?
A: survivor count (dose: 200.0 mg/kg/injection, schedule: Q04DX003 (ip), vehicle: Klucel (hydroxypropylcellulose) (HPC)): 1 of 6; survivor count [8]: 0 of 6

Q: For NC(N)=N/N=C(\C(=N\N=C(N)N)c1ccccc1)c1ccccc1, which survivor count (dose: 240.0 mg/kg/injection, schedule: Q01DX Z (ip), vehicle: methylcellulose (MC)) is on record?
A: The survivor count was 0 of 6.

Q: What about the survivor count (dose: 360.0 mg/kg/injection, schedule: Q01DX Z (ip), vehicle: methylcellulose (MC)) of the same compound?
A: The survivor count was 0 of 6.

Q: What about the survivor count (dose: 480.0 mg/kg/injection, schedule: Q01DX Z (ip), vehicle: methylcellulose (MC)) of the same compound?
A: Its survivor count is 0 of 6.

Q: Which survivor count [9] does the source give for CCN1CCCC(Nc2cc(C)nc(/N=C(\N)Nc3ccc(Cl)c(Cl)c3)n2)C1 (stereo not given) here?
A: Its survivor count is 3 of 6.

Q: What about the survivor count [10] of the same compound?
A: The survivor count was 0 of 6.

Q: Which results are given for O=C(NC1CC1(c1ccccc1)c1ccccc1)NC1CC1(c1ccccc1)c1ccccc1 (stereo not given)?
A: survivor count (dose: 75.0 mg/kg/injection, schedule: Q01DX001 (ip), vehicle: other): 6 of 6; survivor count (dose: 150.0 mg/kg/injection, schedule: Q01DX001 (ip), vehicle: other): 6 of 6

Q: Which survivor count [8] does the source give for C=C(C)C1CCC2CC/C(=N\Nc3ccccc3C(=O)OC)C=C2C1 (stereo not given) here?
A: Its survivor count is 6 of 6.

Q: What does the source list for C=CC1(C)CCC2C(=CCC3C2(C)CC(O)C(O)C3(C)COC2OC(CO)C(O)C(O)C2O)C1 (stereo not given)?
A: survivor count [9]: 2 of 6; survivor count [10]: 0 of 6

Q: How did the survivor count (dose: 200.0 mg/kg/injection, schedule: Q01DX009 (ip), vehicle: acetone) turn out when Cc1cc(C)c(/C=N/O)c(C)c1 was run?
A: The survivor count was 6 of 6.

Q: CN=C(N)Nc1ccc(NC(=O)Nc2ccc(NC(=O)Nc3ccc(NC(N)=NC)cc3)cc2)cc1 was tested. Which T/C (dose: 15.0 mg/kg/injection, schedule: Q01DX Z (ip), vehicle: carboxymethylcellulose (CMC)) did it give?
A: Its T/C is 132 % of control.

Q: And the T/C (dose: 62.0 mg/kg/injection, schedule: Q01DX Z (ip), vehicle: carboxymethylcellulose (CMC))?
A: Its T/C is 130 % of control.

Q: What about the survivor count (dose: 125.0 mg/kg/injection, schedule: Q01DX Z (ip), vehicle: carboxymethylcellulose (CMC)) of the same compound?
A: Its survivor count is 5 of 6.

Q: What about the survivor count (dose: 250.0 mg/kg/injection, schedule: Q01DX Z (ip), vehicle: carboxymethylcellulose (CMC)) of the same compound?
A: Its survivor count is 2 of 6.

Q: And the survivor count (dose: 500.0 mg/kg/injection, schedule: Q01DX Z (ip), vehicle: carboxymethylcellulose (CMC))?
A: Its survivor count is 0 of 6.

Q: How did the survivor count (dose: 50.0 mg/kg/injection, schedule: Q01DX009 (ip), vehicle: Klucel (hydroxypropylcellulose) (HPC)) turn out when Nc1cccc(OCCCCCOc2cccc(N)c2)c1 was run?
A: Its survivor count is 3 of 3.

Q: CNC(=O)c1ccc(/C=C/c2c[nH]c3ccccc23)[n+](C)c1 was tested. Which survivor count [3] did it give?
A: Its survivor count is 3 of 6.

Q: For CCCCCCCCN(C=O)CCCCCCCC, which survivor count [5] is on record?
A: The survivor count was 1 of 3.

Q: What about the survivor count [6] of the same compound?
A: The survivor count was 0 of 3.

Q: With O=[As]O as the compound, how does the survivor count (dose: 20.0 mg/kg/injection, schedule: Q01DX015 (ip), vehicle: carboxymethylcellulose (CMC)) read?
A: Its survivor count is 1 of 6.

Q: And the survivor count (dose: 40.0 mg/kg/injection, schedule: Q01DX015 (ip), vehicle: carboxymethylcellulose (CMC))?
A: Its survivor count is 0 of 6.

Q: Which results are given for CC(=O)OCC1OC(n2cc(C(F)(F)F)c(=O)[nH]c2=O)CC1OC(C)=O (stereo not given)?
A: T/C (dose: 150.0 mg/kg/injection, schedule: Q01DX Z (oral), vehicle: saline): 144 % of control; T/C (dose: 320.0 mg/kg/injection, schedule: Q01DX009 (oral), vehicle: saline): 132 % of control; T/C (dose: 320.0 mg/kg/injection, schedule: Q01DX011 (ip), vehicle: saline): 147 % of control; T/C (dose: 320.0 mg/kg/injection, schedule: Q01DX Z (ip), vehicle: saline): 130 % of control; T/C (dose: 600.0 mg/kg/injection, schedule: Q01DX011 (oral), vehicle: saline): 130 % of control; T/C (dose: 640.0 mg/kg/injection, schedule: Q01DX009 (oral), vehicle: saline): 136 % of control

Q: For O=[N+]([O-])c1cc(Cl)c(Cl)cc1NS(=O)(=O)c1ccccc1, which survivor count (dose: 500.0 mg/kg/injection, schedule: Q01DX015 (ip), vehicle: carboxymethylcellulose (CMC)) is on record?
A: The survivor count was 3 of 6.

Q: What about the survivor count (dose: 600.0 mg/kg/injection, schedule: Q01DX015 (ip), vehicle: carboxymethylcellulose (CMC)) of the same compound?
A: Its survivor count is 1 of 6.

Q: With CC1(c2ccc(C(O)c3ccccc3)s2)OCCO1 (stereo not given) as the compound, how does the T/C (dose: 150.0 mg/kg/injection, schedule: Q01DX001 (ip), vehicle: carboxymethylcellulose (CMC)) read?
A: Its T/C is 125 % of control.

Q: What about the survivor count (dose: 150.0 mg/kg/injection, schedule: Q04DX003 (ip), vehicle: Klucel (hydroxypropylcellulose) (HPC)) of the same compound?
A: The survivor count was 4 of 6.

Q: And the survivor count [7]?
A: Its survivor count is 1 of 6.

Q: For c1cc[c]([Sn]([O]B([O][Sn]([c]2ccccc2)([c]2ccccc2)[c]2ccccc2)[O][Sn]([c]2ccccc2)([c]2ccccc2)[c]2ccccc2)([c]2ccccc2)[c]2ccccc2)cc1, which survivor count [4] is on record?
A: Its survivor count is 0 of 3.

Q: What about the survivor count [5] of the same compound?
A: Its survivor count is 0 of 3.

Q: And the survivor count [6]?
A: Its survivor count is 0 of 3.

Q: With C#CCOCCCC(=O)O as the compound, how does the survivor count (dose: 400.0 mg/kg/injection, schedule: Q01DX009 (ip), vehicle: saline) read?
A: The survivor count was 1 of 6.
